Experiment [1] addresses T1, GFP-UVR8, transiently expressed in Nicotiana benthamiana leaves (Arabidopsis) (UniProt Q9FN03).
T1 sequence: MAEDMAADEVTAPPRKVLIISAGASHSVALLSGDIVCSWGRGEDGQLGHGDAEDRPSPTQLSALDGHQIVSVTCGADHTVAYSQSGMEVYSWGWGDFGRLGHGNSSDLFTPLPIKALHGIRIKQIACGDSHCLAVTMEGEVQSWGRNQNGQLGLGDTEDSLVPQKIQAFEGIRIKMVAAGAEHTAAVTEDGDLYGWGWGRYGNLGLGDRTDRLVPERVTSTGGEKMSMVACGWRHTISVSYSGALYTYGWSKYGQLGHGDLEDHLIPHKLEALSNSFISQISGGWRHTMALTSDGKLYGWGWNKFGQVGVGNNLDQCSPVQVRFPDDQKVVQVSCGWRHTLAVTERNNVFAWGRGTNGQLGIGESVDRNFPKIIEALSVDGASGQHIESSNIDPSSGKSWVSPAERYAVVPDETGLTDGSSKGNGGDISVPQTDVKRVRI
The experiment in a line: co-IP; proteins transiently co-expressed in N. benthamiana leaves; with or without supplementary UV-B for 3 h; GFP-UVR8 forms immunoprecipitated, partners detected by western blot. For orientation: Immunoblotting shows a protein as a band on a membrane.

By UniProt entry, the sequences of proteins in these tests, tags left out.
UniProt Q9CAR4: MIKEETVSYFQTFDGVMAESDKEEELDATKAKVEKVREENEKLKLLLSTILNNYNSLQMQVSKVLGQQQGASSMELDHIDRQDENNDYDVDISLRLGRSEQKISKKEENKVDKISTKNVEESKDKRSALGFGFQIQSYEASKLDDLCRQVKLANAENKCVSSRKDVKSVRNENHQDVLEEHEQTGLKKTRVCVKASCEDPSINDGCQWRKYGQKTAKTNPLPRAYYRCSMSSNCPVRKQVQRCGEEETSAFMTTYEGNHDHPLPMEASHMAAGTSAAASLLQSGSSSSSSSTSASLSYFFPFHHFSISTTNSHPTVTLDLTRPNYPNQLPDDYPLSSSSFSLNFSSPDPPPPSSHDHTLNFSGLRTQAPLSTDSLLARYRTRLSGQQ

Experiment [2] addresses T2, GFP-UVR8^S402A, transiently expressed in Nicotiana benthamiana leaves (Arabidopsis) (UniProt Q9FN03).
T2 sequence: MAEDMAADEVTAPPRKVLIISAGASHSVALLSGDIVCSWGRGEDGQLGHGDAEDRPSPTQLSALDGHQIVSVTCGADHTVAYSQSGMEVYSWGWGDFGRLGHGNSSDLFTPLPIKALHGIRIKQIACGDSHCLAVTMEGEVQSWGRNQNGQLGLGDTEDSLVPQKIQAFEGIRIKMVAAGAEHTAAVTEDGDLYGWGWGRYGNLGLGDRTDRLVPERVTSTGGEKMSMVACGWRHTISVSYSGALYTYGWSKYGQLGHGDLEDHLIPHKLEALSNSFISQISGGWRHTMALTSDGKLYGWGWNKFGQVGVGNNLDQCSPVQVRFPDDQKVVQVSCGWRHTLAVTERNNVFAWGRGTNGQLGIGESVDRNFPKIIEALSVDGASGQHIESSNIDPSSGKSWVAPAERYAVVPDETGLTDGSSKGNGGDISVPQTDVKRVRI
Described as above.

The target of experiment [3] is T3, GFP-UVR8^S402D, transiently expressed in Nicotiana benthamiana leaves (Arabidopsis) (UniProt Q9FN03).
T3 sequence: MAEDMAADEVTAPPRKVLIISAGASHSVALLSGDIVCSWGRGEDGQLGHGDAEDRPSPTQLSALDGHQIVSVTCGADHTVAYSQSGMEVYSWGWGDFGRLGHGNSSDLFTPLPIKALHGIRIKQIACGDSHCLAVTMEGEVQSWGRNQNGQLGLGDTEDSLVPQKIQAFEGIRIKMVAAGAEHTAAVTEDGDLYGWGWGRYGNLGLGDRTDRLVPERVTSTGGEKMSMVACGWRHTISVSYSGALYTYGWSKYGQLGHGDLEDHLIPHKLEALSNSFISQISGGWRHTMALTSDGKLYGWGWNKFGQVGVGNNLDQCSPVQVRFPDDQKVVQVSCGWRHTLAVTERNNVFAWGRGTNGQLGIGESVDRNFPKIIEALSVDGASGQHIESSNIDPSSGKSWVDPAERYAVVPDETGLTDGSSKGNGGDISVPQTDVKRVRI
The experiment is described as above.

The target of experiment [4] is T4, GFP-UVR8 (UV … LOCUS 8 fused to GFP), expressed in Arabidopsis uvr8-1 plants (Arabidopsis), Q9FN03.
T4 chain: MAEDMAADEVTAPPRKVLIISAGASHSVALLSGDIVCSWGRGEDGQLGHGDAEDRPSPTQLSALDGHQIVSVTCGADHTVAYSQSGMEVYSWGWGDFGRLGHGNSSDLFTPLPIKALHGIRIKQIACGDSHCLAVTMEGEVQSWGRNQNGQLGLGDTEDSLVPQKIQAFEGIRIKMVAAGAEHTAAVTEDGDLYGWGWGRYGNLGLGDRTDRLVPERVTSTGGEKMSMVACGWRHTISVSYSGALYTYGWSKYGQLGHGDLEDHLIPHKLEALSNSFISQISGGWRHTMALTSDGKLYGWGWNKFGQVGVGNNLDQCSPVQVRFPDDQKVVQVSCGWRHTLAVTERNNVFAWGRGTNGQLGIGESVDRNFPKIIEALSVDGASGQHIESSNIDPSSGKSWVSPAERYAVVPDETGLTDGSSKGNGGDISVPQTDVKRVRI
The experiment in a line: co-IP; GFP-Trap immunoprecipitation of GFP-UVR8 forms from protein extracts of 14-day old uvr8-1 transgenic Arabidopsis plants; white light, with or without supplementary 3.0 µmol m^-2 s^-1 UV-B; co-precipitated endogenous COP1, RUP1 and RUP2 detected by western blot. The note with it: remark: other sources report otherwise.

For experiment [5], the target named is T5, GFP-UVR8^S402A, expressed in Arabidopsis uvr8-1 plants (Arabidopsis) (UniProt Q9FN03).
T5 sequence: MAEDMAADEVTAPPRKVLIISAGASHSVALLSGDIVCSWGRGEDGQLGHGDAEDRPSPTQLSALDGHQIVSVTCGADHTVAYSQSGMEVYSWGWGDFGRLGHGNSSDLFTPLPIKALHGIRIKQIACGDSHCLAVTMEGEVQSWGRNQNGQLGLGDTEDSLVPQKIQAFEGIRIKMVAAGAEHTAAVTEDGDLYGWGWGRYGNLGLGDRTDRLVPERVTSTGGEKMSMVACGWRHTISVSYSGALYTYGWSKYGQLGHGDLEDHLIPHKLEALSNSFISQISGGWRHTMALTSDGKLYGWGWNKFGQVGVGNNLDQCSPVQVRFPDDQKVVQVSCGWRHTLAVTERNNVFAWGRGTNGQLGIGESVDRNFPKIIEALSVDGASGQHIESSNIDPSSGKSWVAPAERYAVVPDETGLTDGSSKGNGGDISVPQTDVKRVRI
The description is as above.

In experiment [6] the target is T6, GFP-UVR8^S402D, expressed in Arabidopsis uvr8-1 plants (Arabidopsis) (UniProt Q9FN03).
T6 sequence: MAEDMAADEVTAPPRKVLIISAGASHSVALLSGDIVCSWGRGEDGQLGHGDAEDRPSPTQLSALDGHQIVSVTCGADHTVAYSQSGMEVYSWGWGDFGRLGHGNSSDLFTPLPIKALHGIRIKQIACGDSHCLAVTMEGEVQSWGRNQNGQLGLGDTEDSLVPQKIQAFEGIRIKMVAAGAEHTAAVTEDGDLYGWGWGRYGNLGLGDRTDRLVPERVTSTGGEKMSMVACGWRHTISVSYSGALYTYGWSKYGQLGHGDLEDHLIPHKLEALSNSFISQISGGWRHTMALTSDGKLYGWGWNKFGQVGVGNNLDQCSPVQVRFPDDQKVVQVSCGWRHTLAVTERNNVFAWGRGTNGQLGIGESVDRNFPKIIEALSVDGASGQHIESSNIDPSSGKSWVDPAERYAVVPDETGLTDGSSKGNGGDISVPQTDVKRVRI
Described as above.

Data on three molecules can be found in article PMC10858049.

Results are given in words; binding and its absence hold for the method and conditions named. Binding seen in cells or lysates may run through a third protein. Some binding calls cover weakened binding; strength is not graded here. Tags and fused reporters may be left off the sequences shown.

Take “GST-WRKY36 (WRKY DNA-BINDING PROTEIN 36 fused to GST), transiently expressed in Nicotiana benthamiana leaves (from UniProt Q9CAR4 1-387)”: the binding entry in experiment [1], in experiment [2] and in experiment [3] was “binds” in each case.

B1: REPRESSOR OF UV-B PHOTOMORPHOGENESIS 1 (RUP1), endogenous in Arabidopsis plants, Q9LTJ6 1-385 (protein)
chain: MEALFCSEIPNNNIRSSINDLSSSSSYTWPMIMTSSSSSSSSPTIMNIENIPRCDWDLSLSAVVSSASTGSDAIGAIEFDPTGEIIATGGIARKIRSYRLSSLLESRDDHVTASESYICTPAKLSSLKWRPDFSGRVIGSGDYDGVVTEYDVEKQVPVSERDEHGGRRIWSVDYTLYNGSLIGASGSDDGTVQMWDPRNGGTLEETVRPGGGAAICSVEFDPFGGSSIAVGCADRNAYVYDIRRLVDPLIVLDGHTKTVTYARFMDSHTIVTGSTDGSLKQWDIDNGRRVVRTYRGHVNSRNFVGLSVWRHGGLVVSGSENNQVFVYDKRWEEPVWVCGLGHTNRFGSDRRFVSSVCLRQVDEDWCTLVAGGSDGALEIFSGKQS
Consider B1, for which the binding entry in experiment [4] is reported as “binds”.

B2: REPRESSOR OF UV-B PHOTOMORPHOGENESIS 1 (RUP1), endogenous in Arabidopsis plants (protein, UniProt Q9LTJ6 1-385)
chain: MEALFCSEIPNNNIRSSINDLSSSSSYTWPMIMTSSSSSSSSPTIMNIENIPRCDWDLSLSAVVSSASTGSDAIGAIEFDPTGEIIATGGIARKIRSYRLSSLLESRDDHVTASESYICTPAKLSSLKWRPDFSGRVIGSGDYDGVVTEYDVEKQVPVSERDEHGGRRIWSVDYTLYNGSLIGASGSDDGTVQMWDPRNGGTLEETVRPGGGAAICSVEFDPFGGSSIAVGCADRNAYVYDIRRLVDPLIVLDGHTKTVTYARFMDSHTIVTGSTDGSLKQWDIDNGRRVVRTYRGHVNSRNFVGLSVWRHGGLVVSGSENNQVFVYDKRWEEPVWVCGLGHTNRFGSDRRFVSSVCLRQVDEDWCTLVAGGSDGALEIFSGKQS
With B2, the binding result in experiment [5] and in experiment [6] was “binds” in each case.
